# Test results as given in the supplement of paper PMC9015667.
# Some of the results follow. Most values come without repeats; read them as rough.
# Test system: M229P (parental melanoma line)
# Assay: reduction in cell viability relative to untreated/vehicle; higher = more growth inhibition
# Conditions: 200 nM; 72 h
row,Compound,reduction in cell viability [%]
1,CCCCc1ccc(NS(=O)(=O)c2ccc(C)c(C(=O)N3CCN(c4cccc(C)c4C)CC3)c2)cc1,< 0
2,COc1ccccc1N1CCN(CC(O)COc2cccc3ccccc23)CC1 (configuration not stated) [Naftopidil],< 0
3,CN[C@H]1CN(c2ccc3c(=O)c(C(=O)O)cn(-c4nccs4)c3n2)C[C@@H]1OC [Vosaroxin],< 0
4,NC(=O)OCC(COC(N)=O)c1ccccc1 [Felbamate],< 0
5,CC/C(=C(\c1ccc(O)cc1)c1ccc(OCCNC)cc1)c1ccccc1 [Endoxifen],< 0
6,CC[C@H]1OC(=O)[C@H](C)[C@@H](O[C@H]2C[C@@](C)(OC)[C@@H](O)[C@H](C)O2)[C@H](C)[C@@H](O[C@@H]2O[C@H](C)C[C@H](N(C)C)[C@H]2O)[C@](C)(O)C[C@@H](C)CN(C)[C@H](C)[C@@H](O)[C@]1(C)O [Azithromycin],< 0
7,Nc1ccn([C@@H]2CO[C@H](CO)O2)c(=O)n1 [Troxacitabine],< 0
8,COc1cc(N2CCC(N3CCN(C)CC3)CC2)ccc1Nc1ncc(Cl)c(Nc2ccccc2S(=O)(=O)C(C)C)n1,18.4
9,COC(=O)N1CCN(Cc2cccc(NC(=O)Nc3ccc(C)nc3)c2F)CC1 [Omecamtiv mecarbil],< 0
10,COc1ccc(C(=O)CC(=O)c2ccc(C(C)(C)C)cc2)cc1 [Avobenzone],< 0
11,C=CC(=O)N1CCc2ccc(-n3c(=O)ccc4cnc5ccc(-c6cnn(C)c6)cc5c43)cc21,< 0
12,O=c1ccc2ccc(O)c(O)c2o1 [Daphnetin],< 0
